These are yes or no findings as the source states them, for the method shown. Some binding calls cover weakened binding; strength is not graded here.

Amino acid sequences for entries named in this document (tags omitted).
UniProt P08183: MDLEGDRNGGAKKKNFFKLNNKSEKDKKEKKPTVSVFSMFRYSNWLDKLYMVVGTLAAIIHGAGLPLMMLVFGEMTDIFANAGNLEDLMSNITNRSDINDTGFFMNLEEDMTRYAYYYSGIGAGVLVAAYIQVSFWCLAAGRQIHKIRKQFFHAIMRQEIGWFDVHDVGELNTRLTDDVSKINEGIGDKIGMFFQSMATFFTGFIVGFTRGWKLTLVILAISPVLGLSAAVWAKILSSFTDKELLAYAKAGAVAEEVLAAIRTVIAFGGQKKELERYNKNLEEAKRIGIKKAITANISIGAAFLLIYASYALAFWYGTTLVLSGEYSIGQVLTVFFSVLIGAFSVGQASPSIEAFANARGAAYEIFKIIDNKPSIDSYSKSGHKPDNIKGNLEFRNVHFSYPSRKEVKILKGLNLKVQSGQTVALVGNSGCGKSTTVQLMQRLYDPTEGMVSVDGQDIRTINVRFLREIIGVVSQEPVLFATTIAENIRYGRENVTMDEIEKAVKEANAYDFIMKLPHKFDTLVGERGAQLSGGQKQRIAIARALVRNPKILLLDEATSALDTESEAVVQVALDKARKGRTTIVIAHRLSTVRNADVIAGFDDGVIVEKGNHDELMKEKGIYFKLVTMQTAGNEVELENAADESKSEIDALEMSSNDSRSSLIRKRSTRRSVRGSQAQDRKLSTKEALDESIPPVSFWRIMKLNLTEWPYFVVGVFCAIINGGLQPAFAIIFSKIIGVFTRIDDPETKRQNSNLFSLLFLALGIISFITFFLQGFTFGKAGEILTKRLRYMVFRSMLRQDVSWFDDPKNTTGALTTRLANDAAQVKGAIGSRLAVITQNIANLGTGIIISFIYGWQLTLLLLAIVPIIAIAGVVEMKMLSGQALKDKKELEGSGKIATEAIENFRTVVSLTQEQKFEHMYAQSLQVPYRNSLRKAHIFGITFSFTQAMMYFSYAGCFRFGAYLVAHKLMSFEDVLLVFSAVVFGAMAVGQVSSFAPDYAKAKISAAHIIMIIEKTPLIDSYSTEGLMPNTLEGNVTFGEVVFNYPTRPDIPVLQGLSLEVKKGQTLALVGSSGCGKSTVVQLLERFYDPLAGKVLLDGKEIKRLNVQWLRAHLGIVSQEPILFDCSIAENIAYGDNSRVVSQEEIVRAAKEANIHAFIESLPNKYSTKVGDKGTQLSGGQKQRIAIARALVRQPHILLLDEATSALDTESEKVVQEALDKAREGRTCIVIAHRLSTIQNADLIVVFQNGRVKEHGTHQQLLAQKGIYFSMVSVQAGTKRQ

Six molecules from patent publication US20230212305A1, “ANTI-ABCG2 ANTIBODIES AND USES THEREOF” (Kenjockety Biotechnology, Inc., priority 2020, published 2023) can be followed below.

In test [1] the target is T1, human ABCG2 (human) (UniProt Q9UNQ0).
T1 sequence: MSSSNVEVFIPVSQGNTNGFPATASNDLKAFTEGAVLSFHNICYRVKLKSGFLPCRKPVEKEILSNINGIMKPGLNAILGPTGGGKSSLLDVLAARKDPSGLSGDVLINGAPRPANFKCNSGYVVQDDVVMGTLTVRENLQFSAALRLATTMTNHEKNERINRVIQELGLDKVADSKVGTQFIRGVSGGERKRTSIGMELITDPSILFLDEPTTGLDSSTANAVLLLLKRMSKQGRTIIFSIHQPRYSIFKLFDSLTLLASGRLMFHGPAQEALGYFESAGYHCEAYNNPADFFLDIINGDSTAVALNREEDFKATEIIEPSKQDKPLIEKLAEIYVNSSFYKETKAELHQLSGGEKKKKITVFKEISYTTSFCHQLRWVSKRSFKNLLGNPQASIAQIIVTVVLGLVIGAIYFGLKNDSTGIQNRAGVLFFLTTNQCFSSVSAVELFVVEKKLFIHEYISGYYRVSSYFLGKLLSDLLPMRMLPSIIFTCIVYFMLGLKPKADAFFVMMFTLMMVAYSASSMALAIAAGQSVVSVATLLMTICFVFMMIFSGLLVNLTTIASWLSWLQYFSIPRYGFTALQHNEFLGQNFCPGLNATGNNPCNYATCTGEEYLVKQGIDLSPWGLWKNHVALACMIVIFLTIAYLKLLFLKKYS
As to the kind of experiment: flow cytometry, 293T cells overexpressing human ABCG2.

Test [2] addresses T2, cynomolgus ABCG2 (Macaca fascicularis) (Macaca fascicularis (cynomolgus)).
T2 sequence: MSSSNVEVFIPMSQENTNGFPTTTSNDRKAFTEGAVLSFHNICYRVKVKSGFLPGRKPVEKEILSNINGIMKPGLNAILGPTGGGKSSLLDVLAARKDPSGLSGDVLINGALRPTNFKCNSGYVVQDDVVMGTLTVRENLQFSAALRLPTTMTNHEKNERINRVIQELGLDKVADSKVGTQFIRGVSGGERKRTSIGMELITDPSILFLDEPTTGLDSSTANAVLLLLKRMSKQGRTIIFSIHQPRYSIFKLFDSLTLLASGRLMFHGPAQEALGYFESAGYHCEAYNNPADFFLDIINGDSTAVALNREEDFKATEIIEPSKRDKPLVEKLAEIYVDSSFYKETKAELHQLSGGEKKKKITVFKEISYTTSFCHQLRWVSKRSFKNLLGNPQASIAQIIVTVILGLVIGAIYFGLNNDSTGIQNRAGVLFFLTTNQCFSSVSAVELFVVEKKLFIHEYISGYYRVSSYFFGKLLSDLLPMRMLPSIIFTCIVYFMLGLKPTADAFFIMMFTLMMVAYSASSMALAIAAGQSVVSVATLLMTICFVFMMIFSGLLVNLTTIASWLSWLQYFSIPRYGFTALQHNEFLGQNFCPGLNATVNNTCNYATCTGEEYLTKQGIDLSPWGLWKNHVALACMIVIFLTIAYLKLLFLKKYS
Put plainly: flow cytometry, 293T cells overexpressing cynomolgus ABCG2.

For test [3], the target named is T1, human ABCG2 (human). Put plainly: FACS on 293T cells overexpressing human ABCG2.
The target in test [4] is human MDR1 (P glycoprotein, ABCB1) (human) (UniProt P08183). As to the kind of experiment: FACS on 293T cells overexpressing human ABCB1.
Test [5] has as its target T1, human ABCG2 (human). As to the kind of experiment: flow cytometry (FACS) on 293T_ABCG2_OX cells. A general note: In flow cytometry, cells or beads pass a laser one at a time.
For test [6], the target named is T2, cynomolgus ABCG2 (Macaca fascicularis) (Macaca fascicularis (cynomolgus)). Put plainly: flow cytometry on cells expressing cynomolgus ABCG2.
Test [7] has the same target. As to the kind of experiment: FACS, 3T3 cells stably transfected with cABCG2.

B1: G2.757 rat (antibody, human IgG1, V domains shown)
VH: QVTLKESGPGILRPSHTLSLTCSFSGFSLTTYGICVSWIRQPSGKGLEWLANICWEDSKAYNPSLKNRLTISKDTSNNQVFLRIPSVDTADSAIYYCARVFNNYPFPYWGQGTLVTVSS
VL: TQSPPSLSASLGDKVTITCQASQNINKYVAWYQQKPGKAPRLLIRYTSTLESGTPSRFSGSGSWRDYSFSISNVESEDIADYYCLQYVNLWTFGGGTKLELK
Turning to B1, the binding result (in the test with human ABCG2 (human) [1]; in test [2]) was “binds” throughout.

B2: 15D3 IgG1 DD HC/G2.255KK HC/MRK16 LC (bispecific antibody, not shown: a dimerising Fc or GST)
heavy 1: EVKVVESGGVLVRPGGSLKLSCAASGFTFSRYTMSWVRQTPEKRLEWVATISSGGGNTYYPDSVKGRFTVSRDNAMSSLYLQMSSLRSEDTALYYCARYGAGDAWFAYWGQGTLVTVSS
heavy 2: EVMLVESGGALVKPGGSLKLSCAASGFTFSNNAMSWVRQTPETRLEWVATITGGGSYTYYPDSVKGRFTISRDNARNTLYLQMSSLRSEDTATYYCASPDGNYEGVLAYWGQGTLVTVSA
light: DVLMTQTPVSLSVSLGDQASISCRSSQSIVHSTGNTYLEWYLQKPGQSPKLLIYKISNRFSGVPDRFSGSGSGTDFTLKISRVEAEDLGVYYCFQASHFPRTFGGGTKLEIK
For the molecule B2, the binding result (with human ABCG2 (human) [3]; in test [4]) was “binds” throughout.

B3: G2.642 rat (antibody, human IgG1, V domains shown)
VH: QIQLVQSGAELVKPGASVKLSCKTSGFTFSSNYISWLRQKPRQSLEWIAWIYSGTGGTYYNQKFTGKAQLTIDTSSNTAYMQLSSLTSEDSAIYYCARHVGLRYWYFDVWGAGTSVTVSS
VL: DIVLTQSPASLTVSLGQRATISCRASESVDSNGNSFMHWYQQKPGQSPKVLIYRASNLESGVPARFSGSGSRTDFTLTINPVEADDVATYYCQQSNEDPWTFGGGTKLEIKR
For the molecule B3, the binding result with human ABCG2 (human) [5] is given as “binds”.

B4: G2.333 rat (antibody, human IgG1, V domains shown)
VH: EIQLQESGPGLVKPSQSLSLTCSVTGYTITSGYDWTWLRKFPGNKMEWMGYISYSGFTNYNPSLRSRISISRDTSKNQFFLQLNSVTTEDTATYYCARTRGYNPFPYWGQGTLVTVSS
VL: DIQMTQSPSLLSASVGDRVSLSCKAGRNVNNYLAWYQQKLGKPPKLLIYNSNSLQTGIPSRFSGSGSGTDFTLTISSLQPEDVATYFCQQYNSWTTFGSGTKLEIK
In the case of B4, the binding entry in test [6] is given as “binds”.

B5: anti-ABCG2 antibody 5D3 (antibody, V domains shown)
VH: QVQLQESGPGLVKPSQSLSLTCTVTGFSITSDYAWNWIRQFPGKKLEWMGYINFDGGTTYNPSLRGRISITRDTSKNQFFLQLRSVTPEDTATYYCATFYGAKGTLDYWGQGTSVTVSS
VL: DIVLTQSPSSFSVSLGDRVTISCKASGYILNRLAWYQQKPGNAPRLLISGATSLETGFPSRFSGTGSGKDYTLSISSLQTEDVGTYYCQQYWSTPWTFGGGTKLEIK
For B5, the binding entry in test [7] and in test [6] was “binds” throughout.

B6: G2.631 rat (antibody, human IgG1, V domains shown)
VH: EVKLLESGGGLVQSGRSLKLSCAASGFIFSRFYMAWVRQAPRKGLEWVAYISNGAGSTYYRESVKGRFIISRDNAKSTLYLQMDSLRSEDTATYYCTTVAAPWNYVMDGWGQGASVTVSS
VL: NIQITQSPSLLSASVGDRVTLSCKGSQNINNYLAWYQQKLGEAPKLLIYKTNSLHTGIPSRFSGSGSGTDYTLTISSLHSEDLATYYCYQYNNGYTFGAGTKLELK
Turning to B6, the binding result (in the test with human ABCG2 (human) [1]; in test [2]; in the test with human ABCG2 (human) [5]; in test [6]) was “binds” each time.
